Paper PMC9744749
Results are given in words; binding and its absence hold for the method and conditions named. In cells and extracts the contact can be indirect. Some entries that bind do so weakly or less than the wild type.

The chains behind the UniProt entries cited, without tags or fusion partners.
UniProt Q8BKJ9: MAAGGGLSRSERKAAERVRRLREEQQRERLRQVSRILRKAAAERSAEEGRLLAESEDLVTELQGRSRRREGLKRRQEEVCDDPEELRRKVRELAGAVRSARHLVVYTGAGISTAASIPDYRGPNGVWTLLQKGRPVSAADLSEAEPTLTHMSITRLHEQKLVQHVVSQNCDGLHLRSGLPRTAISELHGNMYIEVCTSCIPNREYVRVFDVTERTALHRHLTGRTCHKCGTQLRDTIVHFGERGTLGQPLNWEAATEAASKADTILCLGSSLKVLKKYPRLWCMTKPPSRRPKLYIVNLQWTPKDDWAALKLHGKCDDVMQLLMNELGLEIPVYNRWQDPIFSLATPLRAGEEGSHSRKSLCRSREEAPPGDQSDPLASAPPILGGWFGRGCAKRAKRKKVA

Target: Halo-SIRT7 (UniProt Q8BKJ9)
Assay: pull-down; Halo-SIRT7 immobilised on HaloLink Resin, incubated with lysates of transfected HEK293T cells in pull-down buffer (10 mM Tris-HCl pH 7.4, 150 mM NaCl, 0.5% NP-40, 10 mM nicotinamide, 1 uM TSA) at 4 °C overnight; five washes; western blotting; only the target purified

| Binder | binding |
| --- | --- |
| GAL4DBD-IMP2 fragment C [381–592] (domain or fragment, UniProt Q5SF07 381-592) RGVPPSPPYHPFATHSGYFSSLYPHHHFGPFPHHHSYPEQETVSLFIPTQAVGAIIGKKGAHIKQLARFAGASIKIAPAEGPDVSERMVIITGPPEAQFKAQGRIFGKLKEENFFNPKEEVKLEAHIRVPSSTAGRVIGKGGKTVNELQNLTSAEVIVPRDQTPDENEEVIVRIIGHFFASQTAQRKIREIVQQVKQQEQRYPQGVAPQRSK | binds |
| GAL4DBD-IMP2 fragment C1A [381–481] (domain or fragment, UniProt Q5SF07 381-481) RGVPPSPPYHPFATHSGYFSSLYPHHHFGPFPHHHSYPEQETVSLFIPTQAVGAIIGKKGAHIKQLARFAGASIKIAPAEGPDVSERMVIITGPPEAQFKA | binds |
